The target in experiment [1] is SufI (FtsP), C-terminally hexahistidine-tagged (Escherichia coli) (UniProt P26648). Put plainly: SEC; Superdex-75 10-300 column, 20 mM Mops (pH 7.2), 200 mM NaCl; elution at an apparent molecular mass of approximately 55 kDa; both purified. (In gel filtration, larger molecules generally elute earlier.)
The target is the same in experiment [2]. Put plainly: crystal structure; sitting drops at 20 °C, 2.5 M NaCl, 100 mM imidazole pH 8.0; orthorhombic and monoclinic forms, each with two molecules in the asymmetric unit; interface analysed with the MSD-PISA server; both purified.

The values that follow come from PMC2661564.

Results are given in words; binding and its absence hold for the method and conditions named. Tags and fused reporters may be left off the sequences shown.

B1: SufI (FtsP), C-terminally hexahistidine-tagged (protein, UniProt P26648 18-470)
chain: AGAVPLKASAAGQQQPLPVPPLLESRRGQPLFMTVQRAHWSFTPGTRASVWGINGRYLGPTIRVWKGDDVKLIYSNRLTENVSMTVAGLQVPGPLMGGPARMMSPNADWAPVLPIRQNAATLWYHANTPNRTAQQVYNGLAGMWLVEDEVSKSLPIPNHYGVDDFPVIIQDKRLDNFGTPEYNEPGSGGFVGDTLLVNGVQSPYVEVSRGWVRLRLLNASNSRRYQLQMNDGRPLHVISGDQGFLPAPVSVKQLSLAPGERREILVDMSNGDEVSITCGEAASIVDRIRGFFEPSSILVSTLVLTLRPTGLLPLVTDSLPMRLLPTEIMAGSPIRSRDISLGDDPGINGQLWDVNRIDVTAQQGTWERWTVRADEPQAFHIEGVMFQIRNVNGAMPFPEDRGWKDTVWVDGQVELLVYFGQPSWAHFPFYFNSQTLEMADRGSIGQLLVNPVP
As for B1, the binding result in experiment [1] and in experiment [2] was “no binding” in each case.
